PubChem BioAssay AID493246, Drosophila RNAi Screening Center | 2011

Test: 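Genes fly cells need to grow and stay alive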 (primary screen)
System: Drosophila Kc and S2R+ cells
Knock-down reagent: long dsRNA against Drosophila genes
Measurement: 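Cell number per well after knock-down, printed as raw plate values; calls were based on per-plate z-scores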
Direction: Kc cell number and S2R+ cell number: higher = more cells remaining
Rule for the call: 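Active when the per-plate z-score of cell number is 3 or more in the direction of fewer cells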
The deposit covers about 21,000 reagents; shown is a random part of those with a known target gene and a result. In the full data, 429 (2%) got an active call. 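Values are raw and not normalised between plates; calls rest on per-plate z-scores that were not deposited.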 A plus sign joins genes that one reagent is predicted to hit. Not given: the amount of reagent, the time to read-out.

| Gene | DRSC id | Kc cell number, rep 1 | Kc cell number, rep 2 | S2R+ cell number, rep 1 | S2R+ cell number, rep 2 | Call |
| --- | --- | --- | --- | --- | --- | --- |
| DENR (Density regulated protein) | DRSC20151 | 1.51e6 | 1.60e6 | 1.03e6 | 1.15e6 | inactive |
| CG9331 | DRSC03206 | 1.54e6 | 1.59e6 | 1.09e6 | 1.03e6 | inactive |
| CG16813 | DRSC02520 | 1.65e6 | 1.70e6 | 1.31e6 | 1.52e6 | inactive |
| B4 | DRSC01868 | 1.34e6 | 1.42e6 | 1.24e6 | 1.17e6 | inactive |
| B4 | DRSC03175 | 1.55e6 | 1.61e6 | 1.27e6 | 1.41e6 | inactive |
| CG30076 | DRSC05494 | 1.53e6 | 1.58e6 | 1.08e6 | 1.24e6 | inactive |
| CG7856 | DRSC04896 | 1.70e6 | 1.71e6 | 1.27e6 | 1.42e6 | inactive |
| BHD (Birt-Hogg-Dube) | DRSC11017 | 1.46e6 | 1.54e6 | 1.36e6 | 1.21e6 | inactive |
| Leash | DRSC15617 | 1.58e6 | 1.57e6 | 1.32e6 | 1.39e6 | inactive |
| Arp1 (Actin-related protein 1) | DRSC14118 | 1.55e6 | 1.72e6 | 1.31e6 | 1.42e6 | inactive |
| SMC5 (Structural maintenance of chromosomes 5) | DRSC11849 | 1.59e6 | 1.59e6 | 1.38e6 | 1.36e6 | inactive |
| Cpr65Ax2 + Cpr65Ax1 | DRSC10341 | 1.50e6 | 1.31e6 | 1.10e6 | 1.20e6 | inactive |
| Cpr65Ax2 + Cpr65Ax1 | DRSC10344 | 1.46e6 | 1.33e6 | 1.15e6 | 1.19e6 | inactive |
| cic (capicua) | DRSC14276 | 1.43e6 | 1.43e6 | 7.21e5 | 8.22e5 | inactive |
| cic (capicua) | DRSC15708 | 1.11e6 | 1.04e6 | 7.03e5 | 7.75e5 | inactive |
| cic (capicua) | DRSC16918 | 1.53e6 | 1.48e6 | 1.01e6 | 1.12e6 | inactive |
| cic (capicua) | DRSC21243 | 1.39e6 | 1.45e6 | 9.40e5 | 1.04e6 | inactive |
| CG4612 | DRSC04478 | 1.30e6 | 1.36e6 | 1.02e6 | 1.11e6 | inactive |
| PH4alphaSG2 (prolyl-4-hydroxylase-alpha SG2) | DRSC15037 | 1.45e6 | 1.40e6 | 9.91e5 | 1.11e6 | inactive |
| CG15706 | DRSC06577 | 1.58e6 | 1.61e6 | 1.25e6 | 1.39e6 | inactive |
| Lamtor4 (Late endosomal/lysosomal adaptor, MAPK and MTOR activator 4) | DRSC08436 | 1.40e6 | 1.27e6 | 1.01e6 | 1.24e6 | inactive |
| CG5823 | DRSC15881 | 1.51e6 | 1.58e6 | 1.14e6 | 1.22e6 | inactive |
| CG32262 | DRSC08165 | 1.28e6 | 1.43e6 | 1.26e6 | 1.18e6 | inactive |
| Elba1 (Early boundary activity 1) | DRSC00276 | 1.55e6 | 1.49e6 | 1.22e6 | 1.38e6 | inactive |
| Lime (Linking immunity and metabolism) | DRSC06752 | 1.99e6 | 1.95e6 | 1.44e6 | 1.78e6 | inactive |
| Chro (Chromator) | DRSC11630 | 1.53e6 | 1.61e6 | 1.26e6 | 1.40e6 | inactive |
| CG13689 | DRSC00358 | 1.49e6 | 1.55e6 | 1.03e6 | 1.17e6 | inactive |
| CG13643 | DRSC14641 | 1.53e6 | 1.51e6 | 9.73e5 | 1.04e6 | inactive |
| CG13643 | DRSC14642 | 1.52e6 | 1.55e6 | 9.19e5 | 1.01e6 | inactive |
| CG14186 | DRSC10185 | 1.51e6 | 1.56e6 | 1.35e6 | 1.35e6 | inactive |
| Adgf-E (Adenosine deaminase-related growth factor E) | DRSC05973 | 1.49e6 | 1.54e6 | 1.15e6 | 1.31e6 | inactive |
| CG15014 | DRSC08468 | 1.69e6 | 1.56e6 | 1.00e6 | 1.16e6 | inactive |
| Had2 (beta Hydroxy acid dehydrogenase 2) | DRSC05971 | 1.48e6 | 1.46e6 | 1.24e6 | 1.26e6 | inactive |
| CG1785 | DRSC18139 | 6.03e5 | – | 8.29e5 | – | inactive |

Not a retest: 4 of the entries above.
| Gene | DRSC id | Kc cell number, rep 1 | Kc cell number, rep 2 | S2R+ cell number, rep 1 | S2R+ cell number, rep 2 | Call |
| --- | --- | --- | --- | --- | --- | --- |
| CG32262 | DRSC08165 | 1.28e6 | 1.43e6 | 1.26e6 | 1.18e6 | inactive |
| Elba1 (Early boundary activity 1) | DRSC00276 | 1.55e6 | 1.49e6 | 1.22e6 | 1.38e6 | inactive |
| Lime (Linking immunity and metabolism) | DRSC06752 | 1.99e6 | 1.95e6 | 1.44e6 | 1.78e6 | inactive |
| Chro (Chromator) | DRSC11630 | 1.53e6 | 1.61e6 | 1.26e6 | 1.40e6 | inactive |

Further records:
| Gene | DRSC id | Kc cell number, rep 1 | Kc cell number, rep 2 | S2R+ cell number, rep 1 | S2R+ cell number, rep 2 | Call |
| --- | --- | --- | --- | --- | --- | --- |
| CG13361 | DRSC17896 | 1.54e6 | 1.50e6 | 1.04e6 | 1.13e6 | inactive |
| Fatp3 (Fatty acid transport protein 3) | DRSC04366 | 1.43e6 | 1.54e6 | 1.28e6 | 1.27e6 | inactive |
| hydra | DRSC20497 | 1.45e6 | 1.45e6 | 1.10e6 | 1.14e6 | inactive |
| Cyp304a1 (Cytochrome P450 304a1) | DRSC16623 | 1.49e6 | 1.44e6 | 8.11e5 | 1.01e6 | inactive |
| Or2a (Odorant receptor 2a) | DRSC18690 | 1.43e6 | 1.49e6 | 1.12e6 | 1.23e6 | inactive |
| CG13170 | DRSC06298 | 1.59e6 | 1.53e6 | 1.02e6 | 1.06e6 | inactive |
| ppan (peter pan) | DRSC17030 | 1.56e6 | 1.65e6 | 8.93e5 | 8.68e5 | inactive |
| Dr (Drop) | DRSC17002 | 1.38e6 | 1.49e6 | 1.02e6 | 1.13e6 | inactive |
| CG34302 | DRSC12751 | 1.30e6 | 1.35e6 | 9.95e5 | 1.16e6 | inactive |
| Vsp37A (Vacuolar protein sorting 37A) | DRSC18794 | 1.55e6 | 1.47e6 | 1.06e6 | 1.08e6 | inactive |
| nsr (novel spermatogenesis regulator) | DRSC04427 | 1.53e6 | 1.59e6 | 1.14e6 | 1.18e6 | inactive |
| Pask (PAS kinase) | DRSC04337 | 1.31e6 | 1.35e6 | 1.14e6 | 1.13e6 | inactive |
| CG2269 | DRSC06833 | 1.47e6 | 1.53e6 | 1.21e6 | 1.27e6 | inactive |
| CG6937 + btn | DRSC16917 | 1.73e6 | 1.56e6 | 9.94e5 | 1.09e6 | inactive |
| NK7.1 | DRSC16755 | 1.57e6 | 1.63e6 | 1.18e6 | 1.24e6 | inactive |
| CG7702 | DRSC16293 | 1.50e6 | 1.60e6 | 1.11e6 | 1.24e6 | inactive |
| sol (small optic lobes) | DRSC20587 | 1.47e6 | 1.48e6 | 9.64e5 | 1.09e6 | inactive |
| CG7058 | DRSC20021 | 1.50e6 | 1.51e6 | 1.02e6 | 1.12e6 | inactive |
| CG15729 (retired record) | DRSC19695 | 1.48e6 | 1.48e6 | 9.95e5 | 1.17e6 | inactive |
| CG32773 (retired record) | DRSC17330 | 1.10e6 | 1.28e6 | 1.07e6 | 1.14e6 | inactive |
| CG14109 | DRSC10112 | 1.26e6 | 1.20e6 | 1.29e6 | 1.41e6 | inactive |
| Pop2 | DRSC10537 | 1.35e6 | 1.35e6 | 1.12e6 | 1.10e6 | inactive |
| CG30196 | DRSC04156 | 1.52e6 | 1.60e6 | 1.23e6 | 1.39e6 | inactive |
| CG33221 (retired record) | DRSC21201 | 1.34e6 | 1.44e6 | 1.04e6 | 1.12e6 | inactive |
| Pcf11 (Pcf11 cleavage and polyadenylation factor subunit) | DRSC05983 | 5.12e5 | 7.46e5 | 3.41e5 | 4.86e5 | active |
| Mdr50 (Multi drug resistance 50) | DRSC07467 | 1.68e6 | 1.95e6 | 1.50e6 | 1.68e6 | inactive |
| CG4691 | DRSC01950 | 1.31e6 | 1.37e6 | 1.41e6 | 1.28e6 | inactive |
| Hel89B (Helicase 89B) | DRSC16700 | 1.30e6 | 1.40e6 | 1.07e6 | 1.25e6 | inactive |
| CG17593 | DRSC00504 | 1.91e6 | 1.59e6 | 1.19e6 | 1.34e6 | inactive |
| galene | DRSC08640 | 1.54e6 | 1.17e6 | 1.00e6 | 1.24e6 | inactive |
| galene | DRSC08641 | 1.27e6 | 1.22e6 | 9.92e5 | 1.19e6 | inactive |
| Spn43Ab (Serpin 43Ab) | DRSC06781 | 1.42e6 | 1.51e6 | 1.24e6 | 1.38e6 | inactive |
| CG33640 | DRSC01324 | 1.44e6 | 1.50e6 | 1.06e6 | 1.15e6 | inactive |
| CG7164 | DRSC03018 | 1.71e6 | 1.73e6 | 1.16e6 | 1.27e6 | inactive |
| CG6885 | DRSC10740 | 1.71e6 | 1.75e6 | 1.19e6 | 1.31e6 | inactive |
| Paf-AHalpha (Platelet-activating factor acetylhydrolase alpha) | DRSC20267 | 1.41e6 | 1.47e6 | 1.10e6 | 1.13e6 | inactive |
| Cpr100A (Cuticular protein 100A) | DRSC14465 | 1.41e6 | 1.49e6 | 1.04e6 | 1.15e6 | inactive |
| CG32454 | DRSC11652 | 1.45e6 | 1.47e6 | 1.23e6 | 1.30e6 | inactive |
| karr | DRSC20681 | 1.50e6 | 1.49e6 | 1.06e6 | 1.18e6 | inactive |
| mal (maroon-like) | DRSC20581 | 1.56e6 | 1.59e6 | 1.06e6 | 1.23e6 | inactive |
| Cpr30B (Cuticular protein 30B) | DRSC02728 | 1.57e6 | 1.67e6 | 1.36e6 | 1.44e6 | inactive |
